The source of these data is PubChem BioAssay AID652058 (Broad Institute, 2013).

Hit rate of the full screen: of about 1,200 compounds, about 870 (72%) were called active. Inconclusive results (about 3%) are left out.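 Rule for the calls: active = every test run fits a falling curve whose half-maximal concentration is at most twice the top valid dose; inconclusive = runs disagree, or flat 30 to 70% inhibition, or poor fit; inactive = every run inactive: flat, rising or weaker potency.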 The set was probably picked from earlier hits. Only a part is listed here, and it is no random draw. Potency and affinity values are given separately.

The assay is described as follows: blockers of HIV-1 ZM109 envelope-driven cell-cell fusion – HeLa effector, CEM target cells, luciferase, cherry-pick, dose response (AID 652058).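 Note: 0% = neutral control wells and -100% = maraviroc 300 nM wells.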 The note with it: HeLa Env/CEM cell fusion, 16-24 h; at 35 µM (top of the series).
Turning to `O=C(Nc1cccc(OC(=O)N2CCOCC2)c1)N1CCOCC1`, the activity change, negative = inhibition was inactive: 16%. The same measure for `CCC(=NCCc1c[nH]c2ccccc12)c1c(O)n(C)c(=O)n(C)c1=O`: inactive: -28.9%.

With `O=C1NC2C(=CC(O)C(O)C2O)c2cc3c(cc21)OCO3` (centres undefined), the activity change, negative = inhibition is inactive: -105%. Under `CCC(=NCc1ccc(F)cc1)c1c(O)n(C)c(=O)n(C)c1=O` stands inactive: -12.8%.
